Results: patent US20210171576A1, “METHODS FOR TREATING CANCER WITH ACYLDEPSIPEPTIDE ANALOGS” (priority 2018, published 2021)

B1: ATP5J (protein, UniProt P18859 33-108, looked up)
ATP synthase peripheral stalk …: NKELDPIQKLFVDKIREYKSKRQTSGGPVDASSEYQQELERELFKLKQMFGNADMNTFPTFKFEDPKFEVIEKPQA
B2: ATP5O (protein, UniProt P48047 24-213, looked up)
ATP synthase peripheral stalk …: FAKLVRPPVQVYGIEGRYATALYSAASKQNKLEQVEKELLRVAQILKEPKVAASVLNPYVKRSIKVKSLNDITAKERFSPLTTNLINLLAENGRLSNTQGVVSAFSTMMSVHRGEVPCTVTSASPLEEATLSELKTVLKSFLSQGQVLKLEAKTDPSILGGMIVRIGEKYVDMSVKTKIQKLGRAMREIV
B3: ALDH4A1 (protein, UniProt P30038 25-563, looked up)
Delta-1-pyrroline-5-carboxylat …: KHTSSLKVANEPVLAFTQGSPERDALQKALKDLKGRMEAIPCVVGDEEVWTSDVQYQVSPFNHGHKVAKFCYADKSLLNKAIEAALAARKEWDLKPIADRAQIFLKAADMLSGPRRAEILAKTMVGQGKTVIQAEIDAAAELIDFFRFNAKYAVELEGQQPISVPPSTNSTVYRGLEGFVAAISPFNFTAIGGNLAGAPALMGNVVLWKPSDTAMLASYAVYRILREAGLPPNIIQFVPADGPLFGDTVTSSEHLCGINFTGSVPTFKHLWKQVAQNLDRFHTFPRLAGECGGKNFHFVHRSADVESVVSGTLRSAFEYGGQKCSACSRLYVPHSLWPQIKGRLLEEHSRIKVGDPAEDFGTFFSAVIDAKSFARIKKWLEHARSSPSLTILAGGKCDDSVGYFVEPCIVESKDPQEPIMKEEIFGPVLSVYVYPDDKYKETLQLVDSTTSYGLTGAVFSQDKDVVQEATKVLRNAAGNFYINDKSTGSIVGQQPFGGARASGTNDKPGGPHYILRWTSPQVIKETHKPLGDWSYAYMQ
B4: ACO2 (protein, UniProt Q99798 28-780, looked up)
Aconitate hydratase, …: QRAKVAMSHFEPNEYIHYDLLEKNINIVRKRLNRPLTLSEKIVYGHLDDPASQEIERGKSYLRLRPDRVAMQDATAQMAMLQFISSGLSKVAVPSTIHCDHLIEAQVGGEKDLRRAKDINQEVYNFLATAGAKYGVGFWKPGSGIIHQIILENYAYPGVLLIGTDSHTPNGGGLGGICIGVGGADAVDVMAGIPWELKCPKVIGVKLTGSLSGWSSPKDVILKVAGILTVKGGTGAIVEYHGPGVDSISCTGMATICNMGAEIGATTSVFPYNHRMKKYLSKTGREDIANLADEFKDHLVPDPGCHYDQLIEINLSELKPHINGPFTPDLAHPVAEVGKVAEKEGWPLDIRVGLIGSCTNSSYEDMGRSAAVAKQALAHGLKCKSQFTITPGSEQIRATIERDGYAQILRDLGGIVLANACGPCIGQWDRKDIKKGEKNTIVTSYNRNFTGRNDANPETHAFVTSPEIVTALAIAGTLKFNPETDYLTGTDGKKFRLEAPDADELPKGEFDPGQDTYQHPPKDSSGQHVDVSPTSQRLQLLEPFDKWDGKDLEDLQILIKVKGKCTTDHISAAGPWLKFRGHLDNISNNLLIGAINIENGKANSVRNAVTQEFGPVPDTARYYKKHGIRWVVIGDENYGEGSSREHAALEPRHLGGRAIITKSFARIHETNLKKQGLLPLTFADPADYNKIHPVDKLTIQGLKDFTPGKPLKCIIKHPNGTQETILLNHTFNETQIEWFRAGSALNRMKELQQ
B5: ATAD3A (protein, UniProt Q9NVI7 2-586, looked up)
ATPase family AAA …: SWLFGINKGPKGEGAGPPPPLPPAQPGAEGGGDRGLGDRPAPKDKWSNFDPTGLERAAKAARELEHSRYAKDALNLAQMQEQTLQLEQQSKLKEYEAAVEQLKSEQIRAQAEERRKTLSEETRQHQARAQYQDKLARQRYEDQLKQQQLLNEENLRKQEESVQKQEAMRRATVEREMELRHKNEMLRVEAEARARAKAERENADIIREQIRLKAAEHRQTVLESIRTAGTLFGEGFRAFVTDWDKVTATVAGLTLLAVGVYSAKNATLVAGRFIEARLGKPSLVRETSRITVLEALRHPIQVSRRLLSRPQDALEGVVLSPSLEARVRDIAIATRNTKKNRSLYRNILMYGPPGTGKTLFAKKLALHSGMDYAIMTGGDVAPMGREGVTAMHKLFDWANTSRRGLLLFVDEADAFLRKRATEKISEDLRATLNAFLYRTGQHSNKFMLVLASNQPEQFDWAINDRINEMVHFDLPGQEERERLVRMYFDKYVLKPATEGKQRLKLAQFDYGRKCSEVARLTEGMSGREIAQLAVSWQATAYASEDGVLTEAMMDTRVQDAVQQHQQKMCWLKAEGPGRGDEPSPS
B6: C1QBP (protein, UniProt Q07021 74-282, looked up)
Complement component 1 Q …: LHTDGDKAFVDFLSDEIKEERKIQKHKTLPKMSGGWELELNGTEAKLVRKVAGEKITVTFNINNSIPPTFDGEEEPSQGQKVEEQEPELTSTPNFVVEVIKNDDGKKALVLDCHYPEDEVGQEDEAESDIFSIREVSFQSTGESEWKDTNYTLNTDSLDWALYDHLMDFLADRGVDNTFADELVELSTALEHQEYITFLEDLKSFVKSQ
B7: AKAP1 (protein, UniProt Q92667 30-903, looked up)
A-kinase anchor protein 1, …: KGHVSSHDEQQVEAGAVQLRADPAIKEPLPVEDVCPKVVSTPPSVTEPPEKELSTVSKLPAEPPALLQTHPPCRRSESSGILPNTTDMRLRPGTRRDDSTKLELALTGGEAKSIPLECPLSSPKGVLFSSKSAEVCKQDSPFSRVPRKVQPGYPVVPAEKRSSGERARETGGAEGTGDAVLGEKVLEEALLSREHVLELENSKGPSLASLEGEEDKGKSSSSQVVGPVQEEEYVAEKLPSRFIESAHTELAKDDAAPAPPVADAKAQDRGVEGELGNEESLDRNEEGLDRNEEGLDRNEESLDRNEEGLDRNEEIKRAAFQIISQVISEATEQVLATTVGKVAGRVCQASQLQGQKEESCVPVHQKTVLGPDTAEPATAEAAVAPPDAGLPLPGLPAEGSPPPKTYVSCLKSLLSSPTKDSKPNISAHHISLASCLALTTPSEELPDRAGILVEDATCVTCMSDSSQSVPLVASPGHCSDSFSTSGLEDSCTETSSSPRDKAITPPLPESTVPFSNGVLKGELSDLGAEDGWTMDAEADHSGGSDRNSMDSVDSCCSLKKTESFQNAQAGSNPKKVDLIIWEIEVPKHLVGRLIGKQGRYVSFLKQTSGAKIYISTLPYTQSVQICHIEGSQHHVDKALNLIGKKFKELNLTNIYAPPLPSLALPSLPMTSWLMLPDGITVEVIVVNQVNAGHLFVQQHTHPTFHALRSLDQQMYLCYSQPGIPTLPTPVEITVICAAPGADGAWWRAQVVASYEETNEVEIRYVDYGGYKRVKVDVLRQIRSDFVTLPFQGAEVLLDSVMPLSDDDQFSPEADAAMSEMTGNTALLAQVTSYSPTGLPLIQLWSVVGDEVVLINRSLVERGLAQWVDSYYTSL
B8: ALDH18A1 (protein, UniProt P54886 1-795, looked up)
Delta-1-pyrroline-5-carboxylat …: MLSQVYRCGFQPFNQHLLPWVKCTTVFRSHCIQPSVIRHVRSWSNIPFITVPLSRTHGKSFAHRSELKHAKRIVVKLGSAVVTRGDECGLALGRLASIVEQVSVLQNQGREMMLVTSGAVAFGKQRLRHEILLSQSVRQALHSGQNQLKEMAIPVLEARACAAAGQSGLMALYEAMFTQYSICAAQILVTNLDFHDEQKRRNLNGTLHELLRMNIVPIVNTNDAVVPPAEPNSDLQGVNVISVKDNDSLAARLAVEMKTDLLIVLSDVEGLFDSPPGSDDAKLIDIFYPGDQQSVTFGTKSRVGMGGMEAKVKAALWALQGGTSVVIANGTHPKVSGHVITDIVEGKKVGTFFSEVKPAGPTVEQQGEMARSGGRMLATLEPEQRAEIIHHLADLLTDQRDEILLANKKDLEEAEGRLAAPLLKRLSLSTSKLNSLAIGLRQIAASSQDSVGRVLRRTRIAKNLELEQVTVPIGVLLVIFESRPDCLPQVAALAIASGNGLLLKGGKEAAHSNRILHLLTQEALSIHGVKEAVQLVNTREEVEDLCRLDKMIDLIIPRGSSQLVRDIQKAAKGIPVMGHSEGICHMYVDSEASVDKVTRLVRDSKCEYPAACNALETLLIHRDLLRTPLFDQIIDMLRVEQVKIHAGPKFASYLTFSPSEVKSLRTEYGDLELCIEVVDNVQDAIDHIHKYGSSHTDVIVTEDENTAEFFLQHVDSACVFWNASTRFSDGYRFGLGAEVGISTSRIHARGPVGLEGLLTTKWLLRGKDHVVSDFSEHGSLKYLHENLPIPQRNTN
B9: CCDC58 (protein, UniProt Q4VC31 2-144, looked up)
Protein MIX23: AAPSGGVNCEEFAEFQELLKVMRTIDDRIVHELNTTVPTASFAGKIDASQTCKQLYESLMAAHASRDRVIKNCIAQTSAVVKNLREEREKNLDDLTLLKQLRKEQTKLKWMQSELNVEEVVNDRSWKVFNERCRIHFKPPKNE
B10: ACAT1 (protein, UniProt P24752 34-427, looked up)
Acetyl-CoA acetyltransferase, …: VSKPTLKEVVIVSATRTPIGSFLGSLSLLPATKLGSIAIQGAIEKAGIPKEEVKEAYMGNVLQGGEGQAPTRQAVLGAGLPISTPCTTINKVCASGMKAIMMASQSLMCGHQDVMVAGGMESMSNVPYVMNRGSTPYGGVKLEDLIVKDGLTDVYNKIHMGSCAENTAKKLNIARNEQDAYAINSYTRSKAAWEAGKFGNEVIPVTVTVKGQPDVVVKEDEEYKRVDFSKVPKLKTVFQKENGTVTAANASTLNDGAAALVLMTADAAKRLNVTPLARIVAFADAAVEPIDFPIAPVYAASMVLKDVGLKKEDIAMWEVNEAFSLVVLANIKMLEIDPQKVNINGGAVSLGHPIGMSGARIVGHLTHALKQGEYGLASICNGGGGASAMLIQKL
B11: ATP5F1 (protein, UniProt P24539 43-256, looked up)
ATP synthase peripheral stalk …: PVPPLPEYGGKVRYGLIPEEFFQFLYPKTGVTGPYVLGTGLILYALSKEIYVISAETFTALSVLGVMVYGIKKYGPFVADFADKLNEQKLAQLEEAKQASIQHIQNAIDTEKSQQALVQKRHYLFDVQRNNIAMALEVTYRERLYRVYKEVKNRLDYHISVQNMMRRKEQEHMINWVEKHVVQSISTQQEKETIAKCIADLKLLAKKAQAQPVM
B12: ALDH7A1 (protein, UniProt P49419 27-539, looked up)
Alpha-aminoadipic …: AFMSTLLINQPQYAWLKELGLREENEGVYNGSWGGRGEVITTYCPANNEPIARVRQASVADYEETVKKAREAWKIWADIPAPKRGEIVRQIGDALREKIQVLGSLVSLEMGKILVEGVGEVQEYVDICDYAVGLSRMIGGPILPSERSGHALIEQWNPVGLVGIITAFNFPVAVYGWNNAIAMICGNVCLWKGAPTTSLISVAVTKIIAKVLEDNKLPGAICSLTCGGADIGTAMAKDERVNLLSFTGSTQVGKQVGLMVQERFGRSLLELGGNNAIIAFEDADLSLVVPSALFAAVGTAGQRCTTARRLFIHESIHDEVVNRLKKAYAQIRVGNPWDPNVLYGPLHTKQAVSMFLGAVEEAKKEGGTVVYGGKVMDRPGNYVEPTIVTGLGHDASIAHTETFAPILYVFKFKNEEEVFAWNNEVKQGLSSSIFTKDLGRIFRWLGPKGSDCGIVNVNIPTSGAEIGGAFGGEKHTGGGRESGSDAWKQYMRRSTCTINYSKDLPLAQGIKFQ

Tested on: mitochondrial proteins of HEK293 T-REx cells
Test: Mitochondrial proteome profiling for WT and CLPP^−/− (fold change CLPP^−/−/WT)
Design: species or system human
Details: fold change of mitochondrial protein detected in CLPP knockout compared to WT HEK293 T-REx cells; MaxQuant total peptide ion intensity

Row | Molecule | Avg. fold change (CLPP KO/WT)
1 | B1 | 1.00
2 | B2 | −1.12
3 | B3 | −1.41
4 | B4 | −1.05
5 | B5 | 1.13
6 | B6 | 1.19
7 | B7 | −1.27
8 | B8 | −1.03
9 | B9 | 1.07
10 | B10 | 1.04
11 | B11 | 1.40
12 | B12 | 1.09
